Data reported in PubChem BioAssay AID540256 (National Center for Advancing Translational Sciences (NCATS), 2011).
“And” between values parts separate entries of the source, which are not always exact repeats. Identical values can stand only once. Hit rate of the full screen: of about 300,000 compounds, about 3,700 (1.2%) were called active. The inconclusive results got no clear call from the source; some entries with a clear call stand among them for comparison. Calls follow the shape of the full dose curve; tested in HEK293 cells. A potency beside an inconclusive call is a rough fit, not a confirmed value.

Experiment: qHTS for Inhibitors of binding or entry into cells for Lassa Virus; also: nearly all actives have a fitted effect of over 50% in size
Conditions: Lassa virus pseudotype entry inhibition, cell reporter; series mostly up to 37.9 µM
Potency is read from the fitted curve at half-maximal effect.

SMILES | Potency
Cc1cccc(Cc2nnc(CCC(=O)N3CCCCC3c3nccs3)o2)c1 (stereo not given) | inactive
Cc1ccc(C)c(CN2C(=O)c3ccccc3S(=O)c3ccc(C(=O)N(C)Cc4ccccc4)cc32)c1 (stereo not given) | inconclusive: 8.91 µM [inhibitor, partial curve, poor fit]
Oc1ccc(Cl)cc1C1=NNC(c2cc(Br)cc3c2OCOC3)C1 (stereo not given) | inconclusive: 35.5 µM [inhibitor, single point]
O=c1[nH]cc(F)c(=O)[nH]1 | inconclusive: 1.3 µM [inhibitor, full curve, poor fit]
COc1ccc(C2c3cc(OC)c(OC)cc3CCN2C(=O)c2ccccc2)cc1OC (stereo not given) | inconclusive: 3.55 µM [inhibitor, full curve]
CC(=O)c1ccc(NC(=O)COC(=O)c2c3c(nc4ccccc24)/C(=C\c2cccs2)CCC3)cc1 | inconclusive: 22.4 µM [inhibitor, single point]
Cc1cccc(N2C(=O)c3cccc4c(N(C)CCO)ccc(c34)C2=O)c1 | inactive
C/C(CC(=O)Nc1cccc2c1CCCC2)=N\NC(=O)c1cccc2ccccc12 | inactive
CCOC(=O)c1c2c(n(Cc3ccccc3)c1C)C(=O)C(=O)c1ccccc1-2 | inconclusive: 11.2 µM [inhibitor, partial curve, poor fit]
Nn1cnnc1N/N=C/c1cc([N+](=O)[O-])c(Cl)cc1Cl | inconclusive: 2.82 µM [activator, partial curve, poor fit]
CN(CC(O)CON=C1c2ccccc2-c2ccccc21)S(=O)(=O)c1ccc(Br)cc1 (stereo not given) | inconclusive: 17.8 µM [inhibitor, single point]
O=[N+]([O-])c1ccc(Nc2c3ccccc3nc3ccccc23)cc1 | inactive
CCOc1ccccc1N(C)C(=O)Cn1nc(Cc2cccnc2)c2ccccc2c1=O | inactive
Cc1ccc(OCCCCNC(C)(C)C)c([N+](=O)[O-])c1 | inactive
Cn1c(SCC(=O)c2ccc3c(c2)Cc2ccccc2-3)nnc1-c1cccc(N)c1 | inactive
Cc1ccc(Cn2c(SCC(=O)N3CC(=O)Nc4ccccc43)nc3ccccc3c2=O)cc1 | inconclusive: 22.4 µM [inhibitor, single point]
CCN(CC(=O)Nc1cc(OC)ccc1OC)Cc1nc2ccccc2c(=O)[nH]1 | inactive
CCOc1ccccc1N1CC(c2nc3ccccc3n2CCOc2ccc(C(C)(C)C)cc2)CC1=O (stereo not given) | inconclusive: 14.1 µM [inhibitor, single point]
O=C(Nc1nnc(C(F)(F)F)s1)C1COc2ccccc2O1 (stereo not given) | inconclusive: 1.12 µM [activator, full curve]
CCN(c1cc(C)cc(C)c1)S(=O)(=O)c1nnc(NC(=O)c2cccc(F)c2)s1 | inconclusive: 20 µM [inhibitor, single point]
CC1Cc2ccccc2N1C(=O)/C=C/c1cccc(F)c1 (stereo not given) | inconclusive: 10 µM [inhibitor, partial curve, poor fit]
O=C(/C=C/c1ccccc1)N1CCN(Cc2cc(=O)n3nc(-c4ccccc4)sc3n2)CC1 | inactive

SMILES | Potency
C=CCOC(=O)C1=C(C)OC(N)=C(C#N)C12C(=O)N(CN1CCOCC1)c1ccccc12 (stereo not given) | inconclusive: 1.3 µM [activator, partial curve, poor fit]
CCC(=O)N1CCc2cc(S(=O)(=O)N(C)c3cccc(C)c3)ccc21 | inactive
CCS(=O)(=O)c1ccc2oc(Nc3cccc(OC)c3)nc2c1 | inconclusive: 5.62 µM [inhibitor, single point]
CC1CCCN(C(C(=O)NC2CCCCC2)c2cc3c(cc2[N+](=O)[O-])OCO3)C1 (stereo not given) | inconclusive: 25.9 µM [activator, partial curve, poor fit]
Cc1cccc(C(=O)NC2CCN(C(=O)NCc3ccccc3)CC2)c1 | inconclusive: 35.5 µM [inhibitor, single point]
CCN(CC(=O)NCc1ccc(Cl)cc1)C(=O)c1ccc2cc(OC)ccc2c1 | inconclusive: 7.3 µM [inhibitor, partial curve, poor fit]
O=C(CSc1ccc(Cl)cc1)Nc1ccc(-c2nc3ccccc3[nH]2)cc1 | inactive
Cn1c(=N)n(CC(=O)c2ccc(Br)s2)c2ccccc21 | inconclusive: 2.31 µM [activator, partial curve, poor fit]
O=C(C1c2ccccc2Oc2ccccc21)N1CCN(c2ccc(Cl)cc2)CC1 | inconclusive: 16.4 µM [inhibitor, single point]
O=C(COC(=O)c1cc([N+](=O)[O-])ccc1NCCO)Nc1cccc(S(=O)(=O)N2CCCC2)c1 | inconclusive: 35.5 µM [inhibitor, single point]
COc1ccccc1CNC(=O)Cn1ncc2c(C)n(Cc3ccccc3Cl)c(C)c2c1=O | inconclusive: 3.16 µM [inhibitor, partial curve, poor fit]
COC(=O)c1ccc(OCC(=O)c2ccc(O)cc2O)cc1 | inconclusive: 0.231 µM [activator, full curve]
Nc1c(-c2nc(-c3ccccc3)no2)nnn1CC(=O)Nc1ccccc1 | inconclusive: 5.62 µM [inhibitor, single point]
CCOC(=O)CN(C(=O)CSc1nnc2c(n1)[nH]c1ccc(OC)cc12)c1ccc(F)cc1 | inconclusive: 5.17 µM [inhibitor, partial curve]
CC(=O)c1ccc(NC(=O)Nc2ccccc2)cc1 | active: 8.2 µM
COC(=O)c1cc2ccccc2n1S(=O)(=O)c1ccccc1 | inconclusive: 17.8 µM [inhibitor, single point]
Cc1ccc(C(=O)N(CN2CCCC2=O)c2ccccc2)cc1 | inconclusive: 2.82 µM [activator, partial curve, poor fit]
CCOC(=O)C1(CCc2ccccc2)CCN(C(=O)C2=C(C)OCCO2)CC1 | inactive
COc1ccc(NC(=O)c2cc3cccc(OC)c3oc2=Nc2ccc(C(=O)O)cc2)cc1OC | inconclusive: 1.58 µM [inhibitor, partial curve, poor fit]
FC(F)(F)c1ccc(/C=N/n2c(COc3ccccc3)n[nH]c2=S)cc1 | inconclusive: 1.41 µM [inhibitor, full curve, poor fit]
COc1ccc2c(c1)c1c(c(=O)n(CCc3ccccc3)c(=O)n1Cc1ccc(Cl)cc1)n2C | inconclusive: 5.62 µM [activator, single point]
COCCNCC(O)CON=C1c2ccccc2-c2ccccc21 (stereo not given) | inconclusive: 1.26 µM [inhibitor, single point]

SMILES | Potency
CCOC(=O)c1ccc(NC(=O)c2ccc(CN3CCc4ccccc4C3)cc2)cc1 | inactive
Cc1ccc(-c2csc3ncnc(NS(=O)(=O)c4ccc(Cl)cc4)c23)cc1 | inconclusive: 10 µM [activator, single point]
CCOc1ccc(S(=O)(=O)N2CCCCC2)cc1NC(=O)CN1C(=O)NC(CC)(c2ccccc2)C1=O (stereo not given) | inconclusive: 11.2 µM [inhibitor, single point]
CSc1cccc(NC(=O)/C=C/c2cccc(Cl)c2)c1 | inconclusive: 3.26 µM [activator, single point]
Cc1ccc(CNc2nc3ccccc3n2C)o1 | inactive
Cc1ccc2nc(-c3ccccc3N)[nH]c2c1 | inconclusive: 7.94 µM [inhibitor, partial curve, poor fit]
CCc1ccc(C(=O)Nn2cnc3ccccc3c2=O)cc1 | inconclusive: 8.91 µM [inhibitor, partial curve, poor fit]
CC(C)(C)C1c2[nH]c3ccccc3c2CCN1Cc1cccc(OCCO)c1 (stereo not given) | inconclusive: 35.5 µM [inhibitor, single point]
Cn1c(Cc2cccs2)nnc1SCC(=O)Nc1ccccc1 | inconclusive: 12.6 µM [activator, single point]
CCOc1ccc(N(C(=O)c2cnsn2)C(C(=O)NC2CCCCC2)c2ccncc2)cc1 (stereo not given) | inconclusive: 6.31 µM [inhibitor, single point]
O=c1[nH][nH]c(=S)n1C1CCCCC1 | inactive
O=C(Cc1ccccc1Cl)NCCCn1ccnc1 | inconclusive: 6.31 µM [activator, single point]
CC1=C(C(=O)Nc2cccc(F)c2)C(c2ccsc2)C2=C(CC(C)(C)CC2=O)N1 (stereo not given) | inconclusive: 16.4 µM [inhibitor, partial curve]
Cc1ccccc1OCCCn1c(CO)nc2ccccc21 | inactive
O=c1oc2ccccc2cc1-c1cn2cccnc2n1 | inconclusive: 29.1 µM [inhibitor, single point]
O=C(CN1CCN(S(=O)(=O)c2ccccc2)CC1)Nc1cccc(C(F)(F)F)c1 | inconclusive: 5.8 µM [inhibitor, partial curve]
CC(Oc1cccc(Cl)c1)C(=O)Nc1ccccc1N1CCCC1 (stereo not given) | inconclusive: 14.1 µM [activator, partial curve, poor fit]
CC1(C(=O)NCc2ccc(Cl)c(Cl)c2)Oc2ccccc2NC1=O (stereo not given) | inconclusive: 7.08 µM [inhibitor, full curve, poor fit]
O=C(Cc1ccccc1)N1CCc2[nH]nc(-c3ccccc3)c2C1 | active: 11.2 µM
CCN(CC)C(=O)CSc1nc2cc3c(cc2c(=O)n1CCCCCC(=O)NCc1ccc(OC)cc1)OCO3 | inactive and inconclusive: 35.5 µM [inhibitor, single point]
CC(=O)Nc1ccc(C(=O)CSc2nnc3scc(-c4ccccc4)n23)cc1 | inactive
